Patent publication US20220073563A1
Results are given in words; binding and its absence hold for the method and conditions named. Some binding calls cover weakened binding; strength is not graded here.

The chains behind the UniProt entries cited, without tags or fusion partners. Where a name states a change or a piece, a line headed by the entry shows the natural chain unless it says otherwise. A line that says so, or that is headed by a name, gives the form on record, which may keep a tag or linker.
VEGF (P15692, form named): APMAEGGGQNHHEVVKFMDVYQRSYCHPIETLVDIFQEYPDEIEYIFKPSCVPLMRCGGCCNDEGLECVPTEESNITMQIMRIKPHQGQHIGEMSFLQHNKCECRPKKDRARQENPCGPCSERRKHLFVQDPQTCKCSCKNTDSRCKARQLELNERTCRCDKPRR

Molecular target: VEGF (UniProt P15692)
Experiment: BLI (Octet-QK), biotin-labeled VEGF on SA probe

B1: ankyrin repeat protein binding to VEGF (designed binder)
chain: GSDLDKKLLEAARAGQDDEVRILMANGADVNARDSTGWTPLHLAAPWGHPEIVEVLLKNGADVNAADFQGWTPLHLAAAVGHLEIVEVLLKYGADVNAQDKFGKTAFDISIDNGNEDLAEILQKAA
**Q.** Which binding does the source give for B1 here?
**A.** binds
